# Experimental data as given in article PMC7819943, “Rice protein-binding microarrays: a tool to detect cis-acting elements near promoter regions in rice”.
# By UniProt entry, the sequences of proteins in these tests, tags left out.
# UniProt Q0JBA9, entry or part of it: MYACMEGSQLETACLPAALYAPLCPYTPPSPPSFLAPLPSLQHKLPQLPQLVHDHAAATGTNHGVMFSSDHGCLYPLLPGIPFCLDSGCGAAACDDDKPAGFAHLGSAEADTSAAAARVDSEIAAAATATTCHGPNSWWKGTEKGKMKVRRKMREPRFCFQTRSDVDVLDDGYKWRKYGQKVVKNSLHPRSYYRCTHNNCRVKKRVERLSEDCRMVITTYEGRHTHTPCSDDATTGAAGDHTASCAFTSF
# This is one part of the list.
# Target: OsWRKY34 (Oryza sativa, UniProt Q0JBA9 1-250)
# Test: protein-binding microarray (RPBM); PBS, 2% BSA, 51.3 ng/ul salmon testes DNA, 50 uM zinc acetate, 200 nM TF, 25 C, 1 h; high values mean tight binding
# Details: protein: recombinant; tags: N-terminal polyhistidine and DsRed monomer fusion (pET32a); label: CyDye5-dUTP incorporated in the synthesized complementary strand; 3' TTTTT single-stranded linker to array surface; dsDNA, one strand shown
# Summary of the method: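 Per-feature fluorescence intensity (arbitrary units), read on an Axon 4000B scanner, is the binding signal. Transcription factors carrying an N-terminal polyhistidine tag and DsRed fusion were expressed in E. coli BL21-CodonPlus and purified on Ni–NTA. A custom Agilent array, made double-stranded by primer extension with Cy5-dUTP and blocked with 2% BSA, was incubated with 200 nM protein in PBS, 2% BSA, salmon testes DNA and 50 µM zinc acetate at 25 °C for 1 h and then washed.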
row,Sequence,binding signal
1,CTCATCCAAATTTGTGTTTATAAATGTACTATATATATTTCGGAGTCACCTAGTGCAG,8420 fluorescence intensity (a.u.)
2,GCAGTGAACATGGCCACGGCCGGTGCTTGTGGTTTGACTACGGAGTCACCTAGTGCAG,8380 fluorescence intensity (a.u.)
3,TAGCAGCCAATTAGTCCACTTAATCACCCATGGATCGCGACGGAGTCACCTAGTGCAG,8280 fluorescence intensity (a.u.)
4,ATATACAGCCATATACTACTACCACCACCACTTAAGTTCACGGAGTCACCTAGTGCAG,8800 fluorescence intensity (a.u.)
5,CACTAACGCTCACACACACTAGGCTCCAACACCAACCCAACGGAGTCACCTAGTGCAG,9190 fluorescence intensity (a.u.)
6,GATTCACCGTCGCGCCGCCGCCGCATGCTCTGCTCTCTCGCGGAGTCACCTAGTGCAG,10300 fluorescence intensity (a.u.)
7,GCATCCGTGTCCTTTGCCGAAGCCGAAGGCCCGCTCTCTCCGGAGTCACCTAGTGCAG,8900 fluorescence intensity (a.u.)
8,CCTCGCCTCTCTCTCTCTCTCTCTTTCTCTGCTCTCTCTGCGGAGTCACCTAGTGCAG,10200 fluorescence intensity (a.u.)
9,ACCGCACAGGACGAGGACCACCACCACCTCGCTTTCCATTCGGAGTCACCTAGTGCAG,9010 fluorescence intensity (a.u.)
10,GCTCCTTAACAATCTGCACTTTCTTTTTTGCATAAACACACGGAGTCACCTAGTGCAG,8080 fluorescence intensity (a.u.)
11,CTAACAACCTGCTGGCGACTTATTCTCCACACCGTTGCAACGGAGTCACCTAGTGCAG,8250 fluorescence intensity (a.u.)
12,CTTAATTACGTCATCGTCAACTCGCCGTTTAGTTTAGTCTCGGAGTCACCTAGTGCAG,9910 fluorescence intensity (a.u.)
13,CCAGTGGCAATCCTTGACACTTGGTCACAATTTTCTCTGCCGGAGTCACCTAGTGCAG,8270 fluorescence intensity (a.u.)
14,CTCGTACTAGGGTGTCATGCTGTTGGTTCCGGTGAATCTTCGGAGTCACCTAGTGCAG,8270 fluorescence intensity (a.u.)
15,GCTTGGGGACGGCGGGGTGGTGGCGCTCACGCCCGCGGCGCGGAGTCACCTAGTGCAG,9540 fluorescence intensity (a.u.)
16,CGTCTTATTGTTGGTCGTTGACAAGTTTTGGTTGGGCATGCGGAGTCACCTAGTGCAG,9490 fluorescence intensity (a.u.)
17,TTGTTTGATATGTGCTTTTGTTATTGTTTCCTGCACATCACGGAGTCACCTAGTGCAG,13700 fluorescence intensity (a.u.)
18,CACCCAAAACTTAACGCTTCCCAGTTCCGTTTCCCACACTCGGAGTCACCTAGTGCAG,8420 fluorescence intensity (a.u.)
19,TTATACCCTTCTGGTTGTTTCATGACTGTCTGTTTGAATTCGGAGTCACCTAGTGCAG,13100 fluorescence intensity (a.u.)
20,CCCAACCTCGCCGTCGCCGTCGCCGTCGCCGCCGTCTCCGCGGAGTCACCTAGTGCAG,10000 fluorescence intensity (a.u.)
21,TGCCATGTGTATAGGGTGGTTGGTGGCCGCCTTGGGGATTCGGAGTCACCTAGTGCAG,8280 fluorescence intensity (a.u.)
22,TGCAGATATTGGCATCGATTGCTCACTTCAGGTGATTTTTCGGAGTCACCTAGTGCAG,8060 fluorescence intensity (a.u.)

# Part of the list above, with bars between the fields:
row | Sequence | binding signal
7 | GCATCCGTGTCCTTTGCCGAAGCCGAAGGCCCGCTCTCTCCGGAGTCACCTAGTGCAG | 8900 fluorescence intensity (a.u.)
8 | CCTCGCCTCTCTCTCTCTCTCTCTTTCTCTGCTCTCTCTGCGGAGTCACCTAGTGCAG | 10200 fluorescence intensity (a.u.)
9 | ACCGCACAGGACGAGGACCACCACCACCTCGCTTTCCATTCGGAGTCACCTAGTGCAG | 9010 fluorescence intensity (a.u.)

# Continued:

row,Sequence,binding signal
1,GTTGTGTGTTCTTCTAGGGGATTCTCTCCCCGGCGATTCTCGGAGTCACCTAGTGCAG,10100 fluorescence intensity (a.u.)
2,CACGGCACCACACACACACACGTCCCGGGCCCCGTCCACCCGGAGTCACCTAGTGCAG,8990 fluorescence intensity (a.u.)
3,AAGATACGTTGACTTAGTCTTCCGGAGGTGCTCATATGGACGGAGTCACCTAGTGCAG,9630 fluorescence intensity (a.u.)
4,TGGATATCCGTGCCCAACGTTTGACCATCCGTCTTATTTGCGGAGTCACCTAGTGCAG,8130 fluorescence intensity (a.u.)
5,GGCGGCGGCGGCGGCGGCGGGGAGGAGGTGAAGGTGGAGGCGGAGTCACCTAGTGCAG,14100 fluorescence intensity (a.u.)
6,GAACCGGTCGCCGTCCACCGCTGCATCCATCCGTCCATGTCGGAGTCACCTAGTGCAG,11600 fluorescence intensity (a.u.)
7,GGGATGGATTGGTGGGGAGGATGCTAACAAGTGGTGGAGACGGAGTCACCTAGTGCAG,13600 fluorescence intensity (a.u.)
8,TTTCTATTTGGCACGTGATCCTCATTTATCATGCATTTACCGGAGTCACCTAGTGCAG,11200 fluorescence intensity (a.u.)
9,GCCCATTTGTCCGAAGAGCTCCTCCGGCGAGTCCCCAACACGGAGTCACCTAGTGCAG,9860 fluorescence intensity (a.u.)
10,CACTTATTTATCCTGTTTAGGTAACTTCACTCGAATCATTCGGAGTCACCTAGTGCAG,9510 fluorescence intensity (a.u.)
11,AACATCTTCGCGAGTGTTGCTCTCTTTCGTGCCCTCTCTTCGGAGTCACCTAGTGCAG,8050 fluorescence intensity (a.u.)
12,ATCCTACCCGTTGCTTCGGCTTCTCTCTCAGCCCAAACATCGGAGTCACCTAGTGCAG,8270 fluorescence intensity (a.u.)
13,TTGTGTTCTTCTCCTCTTACTAATACGTTGTCCGCAAATTCGGAGTCACCTAGTGCAG,9090 fluorescence intensity (a.u.)
14,ATACTATATACTACTAGTACTACTACCTCTTTGTTTCTCTCGGAGTCACCTAGTGCAG,8550 fluorescence intensity (a.u.)
15,TCCACTCCACGCACACATCGACGATCTCTCCTTGTTTTTTCGGAGTCACCTAGTGCAG,10900 fluorescence intensity (a.u.)
16,GAACGGGAACACGATCTAACCTCTGCAATCCCCACGCCGCCGGAGTCACCTAGTGCAG,8350 fluorescence intensity (a.u.)
17,TCATATCACGTGCTTTCGAATTTTCGCTCACCATATATAACGGAGTCACCTAGTGCAG,13200 fluorescence intensity (a.u.)
18,GCTGGTTCTAGATTCGAGTGGCTAAACTGTACCCATGTTCCGGAGTCACCTAGTGCAG,8610 fluorescence intensity (a.u.)
19,AATGGGGTATTTTGATCCAGGGGTGTAAAGTTTTGGCGTGCGGAGTCACCTAGTGCAG,8990 fluorescence intensity (a.u.)
20,TTCTTTCGCCAGCTTTTGCAGTCGCCCCTTGCCGATTCCACGGAGTCACCTAGTGCAG,9340 fluorescence intensity (a.u.)
21,GCGAGCGGGGTGGGGCTCGCCGGCCGTCCGCGCGCGGGGACGGAGTCACCTAGTGCAG,10500 fluorescence intensity (a.u.)
